Data: patent US7867512B2, “Cross-linked polymersomes and related encapsulating membranes” (The Trustees of the University of Pennsylvania, priority 1999, dated 2011)
At least one compound was matched to its structure with a doubt left.

Experiment: Water permeability from vesicle volume change after a step in external osmolarity
Type: physicochemical
Conditions: 100 mOsm sucrose inside, moved from 100 to 120 mOsm glucose

SMILES: CCCCCCCC/C=C\CCCCCCCC(=O)O[C@H](COC(=O)CCCCCCCCCCCCCCCCC)COP(=O)([O-])OCC[N+](C)(C)C [SOPC, 1-stearoyl-2-oleoyl phosphatidylcholine]
- Pf, permeability coefficient for water: 23.5±1.7 μm/s
